In article PMC8315796:
No constants are given. Whether binding was seen depends on the method and setting. Binding seen in cells or lysates may run through a third protein. Some results given as binding are weak or reduced against the parent protein; the word gives no strength. For some assays here: Where a sequence is shown, tags or fusion partners need not be part of it.

Sequences of proteins named here, by UniProt entry; tags and fusion partners are left off.
UniProt Q16665: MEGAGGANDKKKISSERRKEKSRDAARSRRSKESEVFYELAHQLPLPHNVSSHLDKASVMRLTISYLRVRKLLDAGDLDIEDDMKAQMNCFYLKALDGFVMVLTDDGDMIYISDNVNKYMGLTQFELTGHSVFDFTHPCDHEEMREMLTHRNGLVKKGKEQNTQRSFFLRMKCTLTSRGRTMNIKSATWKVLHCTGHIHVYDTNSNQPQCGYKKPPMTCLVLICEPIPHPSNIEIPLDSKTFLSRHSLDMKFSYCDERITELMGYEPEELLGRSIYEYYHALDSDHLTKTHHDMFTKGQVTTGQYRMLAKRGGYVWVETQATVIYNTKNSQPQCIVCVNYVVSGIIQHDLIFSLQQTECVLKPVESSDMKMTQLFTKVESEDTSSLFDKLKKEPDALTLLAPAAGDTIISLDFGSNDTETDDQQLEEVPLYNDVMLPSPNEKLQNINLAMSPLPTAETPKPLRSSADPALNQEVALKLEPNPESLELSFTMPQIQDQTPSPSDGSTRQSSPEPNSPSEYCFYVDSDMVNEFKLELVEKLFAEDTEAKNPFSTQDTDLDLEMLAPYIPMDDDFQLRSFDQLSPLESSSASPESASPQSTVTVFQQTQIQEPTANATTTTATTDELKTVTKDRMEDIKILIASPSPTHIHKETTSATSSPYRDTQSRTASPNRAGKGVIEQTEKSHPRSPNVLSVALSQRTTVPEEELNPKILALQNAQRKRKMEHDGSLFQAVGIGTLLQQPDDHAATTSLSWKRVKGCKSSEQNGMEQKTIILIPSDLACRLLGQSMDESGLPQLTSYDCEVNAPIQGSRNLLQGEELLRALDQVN

Key:
[1] = target: T1, KSHV-encoded vCyclin (Kaposi's sarcoma associated herpesvirus (KSHV)) (UniProt Q77Q36); experiment: co-IP; lysates of naturally infected KSHV-positive BC3, BCBL1 and JSC1 cells; immunoprecipitation with vCyclin antibodies, blot for HIF1α; KSHV-negative BJAB cells as negative control
T1 sequence: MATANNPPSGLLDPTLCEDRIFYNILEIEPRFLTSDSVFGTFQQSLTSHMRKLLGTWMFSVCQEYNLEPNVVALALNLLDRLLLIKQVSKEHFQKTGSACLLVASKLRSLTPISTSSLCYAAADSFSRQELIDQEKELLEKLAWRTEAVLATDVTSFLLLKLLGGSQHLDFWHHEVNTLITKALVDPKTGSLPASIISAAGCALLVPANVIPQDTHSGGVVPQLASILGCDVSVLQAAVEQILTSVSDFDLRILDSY

[2] = target: T2, GFP-tagged KSHV-encoded vCyclin (Kaposi's sarcoma associated herpesvirus (KSHV)) (UniProt Q77Q36); experiment: co-IP; HEK293T cells transfected with GFP-vCyclin, lysed in RIPA buffer, pre-cleared with protein A/G agarose beads; overnight immunoprecipitation with GFP antibody; blot probed with HIF1α or GFP antibodies against 5% input or IgG control
T2 sequence: T1 sequence

Substance: HIF1α (from UniProt Q16665 1-826)
- binding [1]: binds
- binding [2]: binds
